For the data set, the system named is NCI-60 tumour cell line panel. Nature of the data set: COMPARE analysis of NCI-60 response patterns. Also noted: species or system human. The following applies: similarity of NCI-60 antitumour activity; ρ >0.7 significant.

In the case of `C=C(CN1CCN(c2cccc(C(F)(F)F)c2)CC1)c1ccc(C(=O)Nc2ccccc2N)cc1` [Compound 4, N-(2-aminophenyl)-4–(3-(4–(3-(trifluoromethyl)phenyl)piperazin-1-yl)prop-1-en-2-yl)benzamide], the “matrix COMPARE coefficient (ρ value) with compound 3” value is recorded as 0.37.
For the molecule `C=C(CN1CCN(c2ccccn2)CC1)c1ccc(C(=O)Nc2ccccc2N)cc1` [Compound 6, N-(2-aminophenyl)-4–(3-(4-(pyridin-2-yl)piperazin-1-yl)prop-1-en-2-yl)benzamide], the “matrix COMPARE coefficient (ρ value) with compound 3” value is reported as 0.10, the “matrix COMPARE coefficient (ρ value) with compound 4” value was 0.20 and the “matrix COMPARE coefficient (ρ value) with compound 5” value is given as 0.06.
Take `C=C(CN1CCN(c2cccc(C(F)(F)F)n2)CC1)c1ccc(C(=O)Nc2ccccc2N)cc1` [Compound 7, N-(2-aminophenyl)-4–(3-(4–(6-(trifluoromethyl)pyridin-2-yl)piperazin-1-yl)prop-1-en-2-yl)benzamide]: the “matrix COMPARE coefficient (ρ value) with compound 1” value stood at 0.15, the “matrix COMPARE coefficient (ρ value) with compound 3” value was 0.32, the “matrix COMPARE coefficient (ρ value) with compound 4” value is 0.35 and the “matrix COMPARE coefficient (ρ value) with compound 5” value amounted to 0.18. Further, the “matrix COMPARE coefficient (ρ value) with compound 6” value stood at 0.09.
`C=C(CN1CCN(c2ccc(C(F)(F)F)cc2)CC1)c1ccc(C(=O)Nc2ccccc2N)cc1` [Compound 5, N-(2-aminophenyl)-4–(3-(4–(4-(trifluoromethyl)phenyl)piperazin-1-yl)prop-1-en-2-yl)benzamide]: the “matrix COMPARE coefficient (ρ value) with compound 3” value came to 0.80 and the “matrix COMPARE coefficient (ρ value) with compound 4” value stood at 0.31.
For `C=C(CN1CCN(c2ccccc2C(F)(F)F)CC1)c1ccc(C(=O)Nc2ccccc2N)cc1` [Compound 3, N-(2-aminophenyl)-4–(3-(4–(2-(trifluoromethyl)phenyl)piperazin-1-yl)prop-1-en-2-yl)benzamide], the “matrix COMPARE coefficient (ρ value) with compound 1” value is 0.13.

For the origin of these results see paper PMC12217109, “Development of novel benzamide class I selective lysine deacetylase inhibitors as potent anticancer agents” (Journal of Enzyme Inhibition and Medicinal Chemistry, 2025).
